According to US20150011466A1 (priority 2012, published 2015):
Plain letter strings leave the end groups untold.

Assay: general procedure: Fmoc solid-phase peptide synthesis; Rink amide resin; HOBT, HBTU, HCTU
Conditions: whole synthesis, scale 5 μmol; for final purity (method not given): Method A

What does the source list for GVFRSSEkRRSADIFI?
final purity (method not given): 77.2%; isolated mass: 2 mg

With QVFRSSEkRRSADIFI as the substance, how does the “final purity (method not given)” value read?
The value was 72.4%.

What about the isolated mass of the same substance?
Its isolated mass is 2.3 mg.

Which “final purity (method not given)” value does the source give for TVFRSQEkRRSADIFI here?
Its value is 73.7%.

What about the isolated mass of the same substance?
Its isolated mass is 4.3 mg.

For TVFRSSEkRRSADIFI, which “final purity (method not given)” value is on record?
Its value is 83%.

And the isolated mass?
The isolated mass was 1.5 mg.

For TVGRSSEkRRSADIFI, which “final purity (method not given)” value is on record?
The value was 85.8%.

What about the isolated mass of the same substance?
The isolated mass was 3.3 mg.
